Test results: patent US10604784B2, “Method and device for antibiotic susceptibility testing based on fluctuations of electrical resistance in a microchannel” (TRUSTEES OF BOSTON UNIVERSITY, priority 2016, dated 2020)
At least one compound was matched to its structure with a doubt left.

Test system: E. coli
Test: Voltage fluctuations of motile bacteria swimming in the microchannel in PBS, before and after antibiotic
Format: cell-based
Conditions: about 10 E. coli cells in microchannel, about 10^8 cells/ml in reservoirs

Structure (SMILES): NC[C@H]1O[C@H](O[C@H]2[C@H](O)[C@@H](O[C@H]3O[C@H](CO)[C@@H](O)[C@H](N)[C@H]3O)[C@H](N)C[C@@H]2N)[C@H](O)[C@@H](O)[C@@H]1O [Kanamycin]
- bacterial activity after administration of the antibiotic: their activity stopped
